Reference: the supplement of paper PMC10849652
The list shows a part of the results.

Chains of the proteins cited; added tags and fusions are not shown. Lines headed by an entry give the natural chain unless they say otherwise; changes in a name come on top.
UniProt P26196: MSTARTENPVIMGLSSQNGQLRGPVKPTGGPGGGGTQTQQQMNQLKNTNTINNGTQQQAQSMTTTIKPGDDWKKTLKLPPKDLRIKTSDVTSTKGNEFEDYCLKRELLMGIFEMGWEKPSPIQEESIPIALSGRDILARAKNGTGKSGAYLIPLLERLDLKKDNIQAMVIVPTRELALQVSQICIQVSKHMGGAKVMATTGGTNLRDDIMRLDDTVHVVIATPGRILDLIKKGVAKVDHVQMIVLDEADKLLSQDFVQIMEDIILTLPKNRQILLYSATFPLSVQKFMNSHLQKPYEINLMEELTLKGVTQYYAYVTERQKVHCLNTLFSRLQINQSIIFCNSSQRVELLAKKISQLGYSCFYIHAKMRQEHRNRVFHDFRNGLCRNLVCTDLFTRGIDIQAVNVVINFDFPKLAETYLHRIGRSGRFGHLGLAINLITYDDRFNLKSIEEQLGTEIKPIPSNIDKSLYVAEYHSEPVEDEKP
UniProt Q14118: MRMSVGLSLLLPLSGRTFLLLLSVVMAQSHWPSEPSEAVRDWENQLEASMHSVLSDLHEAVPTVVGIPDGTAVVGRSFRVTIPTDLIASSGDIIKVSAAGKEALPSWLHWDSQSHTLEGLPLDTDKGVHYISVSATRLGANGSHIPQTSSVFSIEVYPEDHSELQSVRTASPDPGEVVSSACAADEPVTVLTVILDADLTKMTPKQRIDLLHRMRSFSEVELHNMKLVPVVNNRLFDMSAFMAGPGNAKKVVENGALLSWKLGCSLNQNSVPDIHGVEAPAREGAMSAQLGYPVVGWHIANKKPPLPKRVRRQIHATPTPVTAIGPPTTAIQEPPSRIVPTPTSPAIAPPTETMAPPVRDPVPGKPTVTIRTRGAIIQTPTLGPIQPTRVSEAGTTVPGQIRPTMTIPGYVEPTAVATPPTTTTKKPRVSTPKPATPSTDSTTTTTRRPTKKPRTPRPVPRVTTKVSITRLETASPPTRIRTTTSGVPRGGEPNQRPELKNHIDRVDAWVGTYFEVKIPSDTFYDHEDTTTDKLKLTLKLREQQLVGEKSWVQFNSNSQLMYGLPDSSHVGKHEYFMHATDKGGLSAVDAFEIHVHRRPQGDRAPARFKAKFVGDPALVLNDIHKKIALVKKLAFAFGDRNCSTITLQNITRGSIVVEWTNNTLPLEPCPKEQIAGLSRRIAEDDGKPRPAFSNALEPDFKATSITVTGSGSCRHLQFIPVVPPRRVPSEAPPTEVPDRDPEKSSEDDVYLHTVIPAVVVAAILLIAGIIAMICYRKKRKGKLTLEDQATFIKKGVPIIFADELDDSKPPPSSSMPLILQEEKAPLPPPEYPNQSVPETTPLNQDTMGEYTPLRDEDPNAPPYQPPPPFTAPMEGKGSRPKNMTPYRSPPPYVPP
UniProt P0CG12: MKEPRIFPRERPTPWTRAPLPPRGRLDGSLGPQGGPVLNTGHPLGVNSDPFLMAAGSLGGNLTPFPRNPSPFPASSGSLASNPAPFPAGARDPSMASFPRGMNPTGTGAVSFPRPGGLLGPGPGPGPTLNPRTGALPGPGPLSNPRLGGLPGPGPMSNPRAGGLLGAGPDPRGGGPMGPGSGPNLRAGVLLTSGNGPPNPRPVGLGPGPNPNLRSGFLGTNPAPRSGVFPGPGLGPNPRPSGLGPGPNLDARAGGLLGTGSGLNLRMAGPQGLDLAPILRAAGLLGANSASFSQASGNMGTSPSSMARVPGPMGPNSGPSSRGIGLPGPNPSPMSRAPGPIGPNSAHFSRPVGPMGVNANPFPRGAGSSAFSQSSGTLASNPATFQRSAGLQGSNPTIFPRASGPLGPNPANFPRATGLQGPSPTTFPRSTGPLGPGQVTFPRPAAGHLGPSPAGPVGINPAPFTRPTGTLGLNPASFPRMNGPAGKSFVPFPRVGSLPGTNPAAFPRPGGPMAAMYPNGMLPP
UniProt Q07973: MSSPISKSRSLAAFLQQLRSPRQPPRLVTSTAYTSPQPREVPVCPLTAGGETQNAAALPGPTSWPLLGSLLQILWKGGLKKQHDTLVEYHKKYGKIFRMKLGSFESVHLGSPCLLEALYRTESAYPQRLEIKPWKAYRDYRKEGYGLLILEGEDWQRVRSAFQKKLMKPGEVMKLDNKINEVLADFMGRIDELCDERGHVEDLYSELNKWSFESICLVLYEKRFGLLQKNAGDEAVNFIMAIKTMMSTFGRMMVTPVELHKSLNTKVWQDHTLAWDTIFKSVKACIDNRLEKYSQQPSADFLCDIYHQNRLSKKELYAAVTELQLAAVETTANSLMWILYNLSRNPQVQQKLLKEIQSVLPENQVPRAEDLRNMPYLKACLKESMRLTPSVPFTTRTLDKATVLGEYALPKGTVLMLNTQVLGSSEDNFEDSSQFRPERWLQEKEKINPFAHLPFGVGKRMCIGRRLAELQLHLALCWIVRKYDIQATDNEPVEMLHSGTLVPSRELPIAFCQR
UniProt Q9H0S4: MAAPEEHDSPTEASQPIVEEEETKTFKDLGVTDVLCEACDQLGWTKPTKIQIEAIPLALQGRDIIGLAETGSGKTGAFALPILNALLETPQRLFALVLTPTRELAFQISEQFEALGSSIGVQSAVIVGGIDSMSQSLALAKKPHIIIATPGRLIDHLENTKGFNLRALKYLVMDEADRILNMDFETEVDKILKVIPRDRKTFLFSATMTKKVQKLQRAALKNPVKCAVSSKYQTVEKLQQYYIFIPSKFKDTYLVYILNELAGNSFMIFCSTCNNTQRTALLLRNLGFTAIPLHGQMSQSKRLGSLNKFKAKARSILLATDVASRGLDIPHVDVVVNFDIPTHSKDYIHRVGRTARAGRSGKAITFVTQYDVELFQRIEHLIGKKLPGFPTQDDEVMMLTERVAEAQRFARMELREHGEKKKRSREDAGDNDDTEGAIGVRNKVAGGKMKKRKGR
UniProt P32321: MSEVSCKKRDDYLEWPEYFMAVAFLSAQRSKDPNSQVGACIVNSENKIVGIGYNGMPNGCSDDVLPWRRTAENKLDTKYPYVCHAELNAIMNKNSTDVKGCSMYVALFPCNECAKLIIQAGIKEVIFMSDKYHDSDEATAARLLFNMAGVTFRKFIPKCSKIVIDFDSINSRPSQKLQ
UniProt Q16698: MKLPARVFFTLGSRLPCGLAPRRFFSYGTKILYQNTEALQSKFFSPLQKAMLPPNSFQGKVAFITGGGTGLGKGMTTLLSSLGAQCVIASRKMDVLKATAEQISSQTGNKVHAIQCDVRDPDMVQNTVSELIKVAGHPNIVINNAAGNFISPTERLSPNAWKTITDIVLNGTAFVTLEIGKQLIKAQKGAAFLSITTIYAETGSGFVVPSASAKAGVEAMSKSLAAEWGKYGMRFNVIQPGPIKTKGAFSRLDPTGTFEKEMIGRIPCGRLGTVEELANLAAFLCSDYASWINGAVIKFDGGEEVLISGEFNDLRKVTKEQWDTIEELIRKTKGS
UniProt Q5T1V6: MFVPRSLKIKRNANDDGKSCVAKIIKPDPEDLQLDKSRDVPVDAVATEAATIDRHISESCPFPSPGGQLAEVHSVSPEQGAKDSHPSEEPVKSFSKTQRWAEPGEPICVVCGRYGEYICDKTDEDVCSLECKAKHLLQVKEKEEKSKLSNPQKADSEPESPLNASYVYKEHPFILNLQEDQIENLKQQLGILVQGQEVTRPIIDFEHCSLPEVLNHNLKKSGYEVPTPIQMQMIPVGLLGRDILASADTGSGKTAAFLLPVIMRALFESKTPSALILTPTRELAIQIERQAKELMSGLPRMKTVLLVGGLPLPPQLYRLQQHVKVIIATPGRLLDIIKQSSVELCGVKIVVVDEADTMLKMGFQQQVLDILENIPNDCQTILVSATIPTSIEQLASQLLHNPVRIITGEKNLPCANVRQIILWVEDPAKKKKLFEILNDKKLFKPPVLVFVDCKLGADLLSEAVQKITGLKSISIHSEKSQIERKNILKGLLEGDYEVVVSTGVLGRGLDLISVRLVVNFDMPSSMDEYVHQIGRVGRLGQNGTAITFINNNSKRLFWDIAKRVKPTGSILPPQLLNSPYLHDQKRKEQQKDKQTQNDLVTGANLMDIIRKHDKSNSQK
UniProt Q9Y2R4: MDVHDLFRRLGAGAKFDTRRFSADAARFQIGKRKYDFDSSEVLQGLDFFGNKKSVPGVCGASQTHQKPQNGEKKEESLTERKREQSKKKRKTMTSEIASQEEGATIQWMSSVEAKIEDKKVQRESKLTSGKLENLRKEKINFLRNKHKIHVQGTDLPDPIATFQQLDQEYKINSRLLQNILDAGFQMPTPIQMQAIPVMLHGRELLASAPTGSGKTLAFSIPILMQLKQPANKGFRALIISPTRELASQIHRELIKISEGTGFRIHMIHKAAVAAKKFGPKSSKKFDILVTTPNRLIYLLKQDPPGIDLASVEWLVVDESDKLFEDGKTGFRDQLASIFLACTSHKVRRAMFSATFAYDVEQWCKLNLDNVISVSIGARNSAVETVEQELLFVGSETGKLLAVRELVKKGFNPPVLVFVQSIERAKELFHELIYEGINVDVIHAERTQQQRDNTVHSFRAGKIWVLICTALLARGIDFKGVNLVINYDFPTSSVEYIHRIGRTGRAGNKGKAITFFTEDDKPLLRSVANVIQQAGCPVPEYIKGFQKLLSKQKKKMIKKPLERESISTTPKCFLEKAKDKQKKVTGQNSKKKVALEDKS
UniProt Q9NV06: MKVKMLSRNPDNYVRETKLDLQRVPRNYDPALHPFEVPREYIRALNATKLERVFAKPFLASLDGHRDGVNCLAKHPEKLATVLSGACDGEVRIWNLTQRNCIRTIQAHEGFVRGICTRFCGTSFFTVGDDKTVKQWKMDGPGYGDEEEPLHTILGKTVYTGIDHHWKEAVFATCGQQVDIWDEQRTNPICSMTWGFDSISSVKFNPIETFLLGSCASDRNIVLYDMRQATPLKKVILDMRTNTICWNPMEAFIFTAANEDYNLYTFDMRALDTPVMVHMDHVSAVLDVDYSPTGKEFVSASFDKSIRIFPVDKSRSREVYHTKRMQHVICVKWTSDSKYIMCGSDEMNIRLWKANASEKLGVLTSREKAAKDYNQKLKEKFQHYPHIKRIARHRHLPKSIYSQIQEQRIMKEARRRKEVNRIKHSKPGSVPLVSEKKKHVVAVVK
UniProt Q13838, whole entry, looked up: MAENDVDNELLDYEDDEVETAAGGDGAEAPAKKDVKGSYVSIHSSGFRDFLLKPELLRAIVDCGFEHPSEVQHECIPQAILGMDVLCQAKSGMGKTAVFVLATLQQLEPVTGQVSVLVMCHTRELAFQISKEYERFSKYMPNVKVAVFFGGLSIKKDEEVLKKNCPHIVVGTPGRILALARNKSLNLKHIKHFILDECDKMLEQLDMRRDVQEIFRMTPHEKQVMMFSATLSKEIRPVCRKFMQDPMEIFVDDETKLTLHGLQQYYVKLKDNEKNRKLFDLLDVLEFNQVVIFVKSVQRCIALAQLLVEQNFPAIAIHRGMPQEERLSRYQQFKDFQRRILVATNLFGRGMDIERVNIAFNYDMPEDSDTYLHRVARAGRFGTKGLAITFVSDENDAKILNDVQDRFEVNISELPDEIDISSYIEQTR
UniProt Q92466: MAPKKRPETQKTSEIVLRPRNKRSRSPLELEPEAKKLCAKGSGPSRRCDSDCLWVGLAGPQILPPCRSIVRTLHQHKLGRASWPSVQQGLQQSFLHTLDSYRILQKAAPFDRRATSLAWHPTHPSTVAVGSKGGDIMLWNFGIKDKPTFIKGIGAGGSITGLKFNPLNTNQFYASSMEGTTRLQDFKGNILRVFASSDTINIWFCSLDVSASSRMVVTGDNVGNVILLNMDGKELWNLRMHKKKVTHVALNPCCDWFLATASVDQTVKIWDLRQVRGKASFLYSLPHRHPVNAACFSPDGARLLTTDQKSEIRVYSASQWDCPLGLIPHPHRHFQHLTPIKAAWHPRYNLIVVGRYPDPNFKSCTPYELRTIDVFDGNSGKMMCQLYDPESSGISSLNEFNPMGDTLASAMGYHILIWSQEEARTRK
UniProt Q9UJV9: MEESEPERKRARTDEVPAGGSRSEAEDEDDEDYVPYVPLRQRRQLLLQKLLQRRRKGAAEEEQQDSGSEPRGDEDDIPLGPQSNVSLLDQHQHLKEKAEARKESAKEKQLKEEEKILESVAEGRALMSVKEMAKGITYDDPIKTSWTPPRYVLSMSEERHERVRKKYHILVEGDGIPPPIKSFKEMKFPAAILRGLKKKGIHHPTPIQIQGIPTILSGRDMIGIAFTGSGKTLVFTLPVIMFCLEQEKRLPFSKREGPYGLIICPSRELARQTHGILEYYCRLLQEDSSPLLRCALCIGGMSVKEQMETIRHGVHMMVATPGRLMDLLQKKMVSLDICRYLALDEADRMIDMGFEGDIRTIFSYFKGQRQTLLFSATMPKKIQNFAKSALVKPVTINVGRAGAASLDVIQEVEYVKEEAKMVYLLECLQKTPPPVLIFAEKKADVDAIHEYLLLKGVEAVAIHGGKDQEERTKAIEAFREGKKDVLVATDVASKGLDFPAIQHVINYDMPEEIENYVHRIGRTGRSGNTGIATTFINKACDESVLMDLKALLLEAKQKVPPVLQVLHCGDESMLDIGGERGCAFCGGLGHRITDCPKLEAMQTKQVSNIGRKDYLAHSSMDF

Columns and labels:
Test in all cases: log2 fold change, soluble protein after heating vs DMSO (PISA); higher = thermal stabilisation; K562 lysate, 10 uM; active = over 0.2 and 3.5 SD of the protein, either way, in both replicates (recomputed)
vemurafenib = compound: CCCS(=O)(=O)Nc1ccc(F)c(C(=O)c2c[nH]c3ncc(-c4ccc(Cl)cc4)cc23)c1F [vemurafenib]
In short: (§1)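 Dounce homogenisation of K562 pellets in PBS pH 7.4 with 1 mM MgCl2 produced a crude extract, used at 1 mg/mL protein. Exposure to 10 μM compound lasted 30 min, and aliquots were then heated for 3 min across 48°C-58°C, pooled and brought to 0.5% NP-40 at 4°C. The supernatant after 21,000xg for 90 min was quantified by TMTpro 16plex LC-MS/MS with channel sums equalised. Duplicate values are given as log-two fold change in thermal stability relative to solvent controls.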

[1] = compound: CCCS(=O)(=O)Nc1ccc(F)c(C(=O)c2c[nH]c3ncc(Cl)cc23)c1F
In short: as §1

barasertib = compound: CCN(CCCOc1ccc2c(Nc3cc(CC(=O)Nc4cccc(F)c4)[nH]n3)ncnc2c1)CCOP(=O)(O)O [barasertib]
In short: as §1

[2] = compound: CC[C@@H]1C(=O)N(C)c2cnc(Nc3ccc(C(=O)NC4CCN(C)CC4)cc3OC)nc2N1C1CCCC1
In short: as §1

volasertib = compound: CC[C@@H]1C(=O)N(C)c2cnc(Nc3ccc(C(=O)N[C@H]4CC[C@H](N5CCN(CC6CC6)CC5)CC4)cc3OC)nc2N1C(C)C [volasertib]
In short: as §1

[3] = compound: CCn1c(C(=O)N(C2CC2)C2CC2)cc2c3c(ncn3C)c(Nc3cc(C)n(C)n3)nc21
In short: as §1

[4] = compound: CCn1cc(-c2ccnc3[nH]c(-c4cccc(CN(C)C)c4)cc23)c(-c2ccc(NC(=O)N(C)C)cc2)n1
In short: as §1

[5] = compound: CN1CCC(CNc2ccc3ncc(-c4cccc(OC(F)(F)F)c4)n3n2)CC1
In short: as §1

saracatinib = compound: CN1CCN(CCOc2cc(OC3CCOCC3)c3c(Nc4c(Cl)ccc5c4OCO5)ncnc3c2)CC1 [saracatinib]
In short: as §1

sotrastaurin = compound: CN1CCN(c2nc(C3=C(c4c[nH]c5ccccc45)C(=O)NC3=O)c3ccccc3n2)CC1 [sotrastaurin]
In short: as §1

| Target | log2 fold change (vemurafenib) | log2 fold change [1] | log2 fold change (barasertib) | log2 fold change [2] | log2 fold change (volasertib) | log2 fold change [3] | log2 fold change [4] | log2 fold change [5] | log2 fold change (saracatinib) | log2 fold change (sotrastaurin) |
| --- | --- | --- | --- | --- | --- | --- | --- | --- | --- | --- |
| DDX6 (UniProt P26196) | inactive: 0.017 | inactive: 0.008 | inactive: -0.019 | inactive: 0.009 | inactive: -0.017 | inactive: 0.01 | inactive: -0.05 | inactive: 0.049 | inactive: -0.001 | inactive: -0.003 |
| DAG1 (UniProt Q14118) | inactive: 0 | inactive: 0.012 | inactive: -0.001 | inactive: 0.032 | inactive: 0.04 | inactive: -0.046 | inactive: -0.118 | inactive: 0.117 | inactive: -0.013 | inactive: 0.011 |
| DCP2 (UniProt Q8IU60) | inactive: -0.05 | inactive: -0.038 | inactive: 0.014 | inactive: 0.016 | inactive: -0.061 | inactive: -0.028 | inactive: 0.059 | inactive: -0.13 | inactive: -0.023 | inactive: -0.01 |
| DERPC (UniProt P0CG12) | inactive: 0.044 | inactive: -0.107 | inactive: 0.104 | inactive: 0.095 | inactive: 0.15 | inactive: 0.158 | inactive: 0.152 | inactive: -0.106 | inactive: 0.105 | inactive: -0.271 |
| DAZAP1 (UniProt Q96EP5) | inactive: 0.036 | inactive: 0.043 | inactive: -0.017 | inactive: 0.016 | inactive: 0.011 | inactive: 0.065 | inactive: 0.129 | inactive: 0.032 | inactive: 0.003 | inactive: -0.109 |
| CYP24A1 (UniProt Q07973) | inactive: 0.065 | inactive: -0.01 | inactive: -0.055 | inactive: 0.166 | inactive: 0.006 | inactive: -0.212 | active: -0.499 | inactive: 0.268 | inactive: 0.056 | inactive: 0 |
| DDX49 (UniProt Q9Y6V7) | inactive: 0.036 | inactive: -0.008 | inactive: 0.039 | inactive: -0.05 | inactive: -0.025 | inactive: -0.023 | inactive: -0.087 | inactive: 0.03 | inactive: -0.021 | inactive: -0.007 |
| DENR (UniProt O43583) | inactive: -0.005 | inactive: -0.051 | inactive: -0.031 | inactive: 0.036 | inactive: 0.034 | inactive: 0.02 | inactive: 0.07 | inactive: 0.007 | inactive: -0.017 | inactive: -0.029 |
| DDX31 (UniProt Q9H8H2) | inactive: -0.007 | inactive: 0.033 | inactive: 0.09 | inactive: 0.043 | inactive: -0.04 | inactive: -0.036 | inactive: -0.02 | inactive: 0.016 | inactive: 0.023 | inactive: -0.032 |
| DDX55 (UniProt Q8NHQ9) | inactive: 0.01 | inactive: 0.015 | inactive: 0.014 | inactive: -0.042 | inactive: -0.015 | inactive: 0.035 | inactive: 0.009 | inactive: 0.021 | inactive: -0.004 | inactive: 0.051 |
| DDX50 (UniProt Q9BQ39) | inactive: 0.097 | inactive: 0.079 | inactive: -0.208 | inactive: -0.219 | inactive: -0.022 | inactive: 0.042 | inactive: -0.063 | inactive: 0.012 | inactive: -0.01 | inactive: -0.022 |
| DDX47 (UniProt Q9H0S4) | inactive: 0.06 | inactive: 0.027 | inactive: 0.101 | inactive: -0.002 | inactive: 0.008 | inactive: 0.025 | inactive: -0.202 | inactive: 0.069 | inactive: 0.019 | inactive: 0.021 |
| DCXR (UniProt Q7Z4W1) | inactive: -0.013 | inactive: -0.003 | inactive: 0.039 | inactive: -0.002 | inactive: 0.01 | inactive: 0.011 | inactive: -0.037 | inactive: 0.02 | inactive: -0.002 | inactive: -0.034 |
| DDX56 (UniProt Q9NY93) | inactive: 0.026 | inactive: 0.008 | inactive: 0.059 | inactive: 0.099 | inactive: -0.067 | inactive: -0.01 | inactive: -0.038 | inactive: 0.043 | inactive: -0.007 | inactive: 0.029 |
| DCTD isoform 2 (UniProt P32321) | inactive: -0.015 | inactive: -0.007 | inactive: -0.028 | inactive: 0.005 | inactive: 0.025 | inactive: 0.002 | inactive: -0.004 | inactive: 0.023 | inactive: 0.025 | inactive: -0.027 |
| DDX46 (UniProt Q7L014) | inactive: 0.018 | inactive: 0.019 | inactive: 0.027 | inactive: -0.019 | inactive: -0.044 | inactive: 0.011 | inactive: -0.023 | inactive: 0.027 | inactive: -0.02 | inactive: 0.012 |
| DDX4 (UniProt Q9NQI0) | inactive: -0.044 | inactive: -0.015 | inactive: 0.069 | inactive: -0.071 | inactive: -0.021 | inactive: 0.015 | inactive: -0.167 | inactive: 0 | inactive: -0.027 | – |
| DCAF15 (UniProt Q66K64) | inactive: -0.031 | inactive: 0.052 | inactive: 0.047 | inactive: -0.053 | inactive: -0.017 | inactive: -0.028 | inactive: -0.189 | inactive: 0.137 | inactive: -0.057 | inactive: -0.021 |
| DCAF11 (UniProt Q8TEB1) | inactive: 0 | inactive: -0.012 | inactive: 0.039 | inactive: -0.004 | inactive: -0.005 | inactive: -0.023 | inactive: 0.107 | inactive: 0.021 | inactive: -0.018 | inactive: -0.039 |
| DCUN1D1 (UniProt Q96GG9) | inactive: 0.001 | inactive: -0.007 | inactive: -0.018 | inactive: 0.033 | inactive: 0.01 | inactive: 0.088 | inactive: -0.034 | inactive: 0.026 | inactive: -0.01 | inactive: 0.011 |
| DECR1 (UniProt Q16698) | inactive: -0.004 | inactive: -0.006 | inactive: -0.012 | inactive: -0.025 | inactive: -0.002 | inactive: 0.009 | inactive: 0.001 | inactive: -0.01 | inactive: -0.033 | inactive: -0.01 |
| DDX59 (UniProt Q5T1V6) | inactive: 0.05 | inactive: 0.008 | inactive: -0.004 | inactive: -0.015 | inactive: 0.014 | inactive: 0.055 | inactive: -0.008 | inactive: 0.027 | inactive: -0.004 | inactive: 0 |
| DDX52 (UniProt Q9Y2R4) | inactive: -0.024 | inactive: 0.013 | inactive: -0.008 | inactive: 0.124 | inactive: -0.003 | inactive: 0.013 | inactive: -0.052 | inactive: 0.019 | inactive: 0.018 | inactive: 0.035 |
| DDX21 (UniProt Q9NR30) | inactive: 0.029 | inactive: 0.006 | inactive: 0.021 | inactive: -0.047 | inactive: -0.005 | inactive: -0.002 | inactive: -0.032 | inactive: -0.031 | inactive: -0.007 | inactive: 0.006 |
| DCAF13 (UniProt Q9NV06) | inactive: 0.006 | inactive: 0.054 | inactive: 0.063 | inactive: 0.066 | inactive: -0.027 | inactive: -0.032 | inactive: 0.074 | inactive: 0.004 | inactive: 0.003 | inactive: 0.043 |
| DDX39B isoform 2 (UniProt Q13838) | inactive: -0.017 | inactive: -0.006 | inactive: 0.018 | inactive: -0.08 | inactive: -0.013 | inactive: 0.011 | inactive: -0.038 | inactive: 0.005 | inactive: -0.024 | inactive: -0.017 |
| DDB2 (UniProt Q92466) | inactive: -0.073 | inactive: 0.001 | inactive: 0.025 | inactive: 0.015 | inactive: -0.003 | inactive: 0 | inactive: 0.006 | inactive: 0.019 | inactive: -0.022 | inactive: 0.075 |
| DAD1 (UniProt P61803) | inactive: 0.168 | inactive: 0.062 | inactive: 0.177 | inactive: -0.085 | inactive: -0.08 | inactive: 0.007 | inactive: 0.119 | inactive: -0.005 | inactive: 0.18 | inactive: -0.04 |
| DDX41 (UniProt Q9UJV9) | inactive: 0.047 | inactive: -0.008 | inactive: 0.046 | inactive: 0.016 | inactive: -0.039 | inactive: 0.047 | inactive: -0.071 | inactive: 0.042 | inactive: -0.016 | inactive: 0.012 |
| DCAF8 (UniProt Q5TAQ9) | inactive: -0.026 | inactive: 0.016 | inactive: -0.005 | inactive: 0.018 | inactive: 0.013 | inactive: 0.006 | inactive: -0.031 | inactive: 0.032 | inactive: -0.013 | inactive: 0.013 |

Limited to log2 fold change (volasertib), log2 fold change (vemurafenib) and log2 fold change (saracatinib), for some of the entries so far:
Target	log2 fold change (volasertib)	log2 fold change (vemurafenib)	log2 fold change (saracatinib)
DDX56 (UniProt Q9NY93)	inactive: -0.067	inactive: 0.026	inactive: -0.007
DCTD isoform 2 (UniProt P32321)	inactive: 0.025	inactive: -0.015	inactive: 0.025
